Test results published in PMC3520985.
Results are given in words; binding and its absence hold for the method and conditions named. In cells and extracts the contact can be indirect. Here binding means that the protein was enriched with, or labelled near, the bait; the list need not be complete.

Amino acid sequences for entries named in this document (tags omitted).
UniProt Q14166: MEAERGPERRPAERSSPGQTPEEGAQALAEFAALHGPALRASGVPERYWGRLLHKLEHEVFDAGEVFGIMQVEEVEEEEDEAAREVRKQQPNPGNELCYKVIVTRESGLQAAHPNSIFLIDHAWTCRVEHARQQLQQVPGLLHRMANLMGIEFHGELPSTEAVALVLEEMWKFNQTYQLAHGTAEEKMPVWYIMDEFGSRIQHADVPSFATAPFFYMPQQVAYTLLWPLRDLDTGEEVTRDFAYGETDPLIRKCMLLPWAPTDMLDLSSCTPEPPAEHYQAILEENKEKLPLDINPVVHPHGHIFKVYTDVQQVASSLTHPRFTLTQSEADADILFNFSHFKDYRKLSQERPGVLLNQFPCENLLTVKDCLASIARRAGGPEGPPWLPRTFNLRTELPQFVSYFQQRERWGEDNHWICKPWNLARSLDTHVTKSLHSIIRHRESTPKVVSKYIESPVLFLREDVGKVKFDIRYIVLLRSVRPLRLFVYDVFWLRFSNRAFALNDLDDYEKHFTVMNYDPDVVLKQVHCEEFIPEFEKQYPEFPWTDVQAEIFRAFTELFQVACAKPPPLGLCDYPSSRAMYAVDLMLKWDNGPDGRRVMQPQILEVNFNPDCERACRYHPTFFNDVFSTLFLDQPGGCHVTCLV
UniProt P62629: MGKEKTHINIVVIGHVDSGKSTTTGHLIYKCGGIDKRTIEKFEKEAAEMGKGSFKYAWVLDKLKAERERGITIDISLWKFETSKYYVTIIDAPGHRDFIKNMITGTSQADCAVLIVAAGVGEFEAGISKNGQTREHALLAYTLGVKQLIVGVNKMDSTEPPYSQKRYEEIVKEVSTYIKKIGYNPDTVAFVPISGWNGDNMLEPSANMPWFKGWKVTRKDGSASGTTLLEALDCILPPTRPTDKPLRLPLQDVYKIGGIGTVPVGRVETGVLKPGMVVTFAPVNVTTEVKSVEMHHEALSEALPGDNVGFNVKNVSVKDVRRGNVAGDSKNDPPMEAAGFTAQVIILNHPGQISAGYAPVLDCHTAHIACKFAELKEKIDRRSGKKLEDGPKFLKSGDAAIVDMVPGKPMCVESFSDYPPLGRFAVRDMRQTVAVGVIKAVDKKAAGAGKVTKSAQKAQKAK

Molecular target: hTTLL12 expressed with Vaccinia virus Ankara strain (MVA) vectors (human) (UniProt Q14166)
Assay: affinity purification with mass spectrometry; tagged hTTLL12 expressed in BHK21 cells with MVA vaccinia vectors, purified by affinity chromatography; EEF1A1 in the preparation identified by mass spectrometry and WB

For “EEF1A1 (endogenous in BHK21 cells) (from UniProt P62629 1-462)”, the binding was “binds”.
